Laboratory results as given in paper PMC7969032, “Tandem RNA binding sites induce self-association of the stress granule marker protein TIA-1”.
These are yes or no findings as the source states them, for the method shown.

Assays:
[1] = molecular target: T-cell intracellular antigen protein (TIA-1), full-length, short isoform (human) (UniProt P31483); test: condition: only in buffer including 500 mM arginine; sedimentation of the condensed phase by centrifugation (Csat); control: TIA-1 10 μM diluted into size exclusion buffer with 0.5 M arginine-HCl, room temperature; both purified
[2] = molecular target: T-cell intracellular antigen protein (TIA-1), full-length, short isoform (human) (UniProt P31483); test: condition: only 2.5 μM TIA-1 at room temperature, alone or with single-site or A-rich nucleic acid; turbidity at 385 nm; TIA-1 2.5 μM alone or with 0.25 μM single-site or non-cognate nucleic acid (UC1, TC1, A-rich, p53 site 1), aggregation buffer, room temperature, 10 min; both purified
[3] = molecular target: T-cell intracellular antigen protein (TIA-1), full-length, short isoform (human) (UniProt P31483); test: condition: only with 5:1 excess TC sites (TC5 ssDNA); turbidity at 385 nm; TIA-1 2.5 μM with excess TC5 ssDNA (5:1 TC sites over TIA-1), aggregation buffer, room temperature; both purified
[4] = molecular target: T-cell intracellular antigen protein (TIA-1), full-length, short isoform (human) (UniProt P31483); test: SAXS; static SAXS, TIA-1 at 0.37-2.9 mg/ml in 20 mM sodium phosphate, 60 mM KCl, 0.5 M arginine-HCl, 1 mM MgCl2, 2 mM DTT, 0.5 mM EDTA, pH 7.0; both purified
[5] = molecular target: T-cell intracellular antigen protein (TIA-1), full-length, short isoform (human) (UniProt P31483); test: thioflavin T fluorescence; TIA-1 alone at 2.5 μM in HEPES aggregation buffer with 5 μM ThT, orbital shaking 500 r.p.m., 30 °C; both purified

binding [1]: no binding
B1: T-cell intracellular antigen protein (TIA-1), full-length, short isoform (protein, UniProt P31483-2 1-375)
chain: MEDEMPKTLYVGNLSRDVTEALILQLFSQIGPCKNCKMIMDTAGNDPYCFVEFHEHRHAAAALAAMNGRKIMGKEVKVNWATTPSSQKKDTSNHFHVFVGDLSPEITTEDIKAAFAPFGRISDARVVKDMATGKSKGYGFVSFFNKWDAENAIQQMGGQWLGGRQIRTNWATRKPPAPKSTYESNTKQLSYDEVVNQSSPSNCTVYCGGVTSGLTEQLMRQTFSPFGQIMEIRVFPDKGYSFVRFNSHESAAHAIVSVNGTTIEGHVVKCYWGKETLDMINPVQQQNQIGYPQPYGQWGQWYGNAQQIGQYMPNGWQVPAYGMYGQAWNQQGFNQTQSSAPWMGPNYGVQPPQGQNGSMLPNQPSGYRVAGYETQ
binding [2]: no binding | binding [3]: no binding | binding [4]: no binding (condition: in buffer with 0.5 M arginine–HCl) | binding [5]: no binding (condition: 2.5 μM TIA-1 alone)
